In the supplement of paper PMC10849652:
Some of the results follow.

Amino acid sequences for entries named in this document (tags omitted). A change or cut given only in a name is not applied to a line headed by its entry.
UniProt O60825: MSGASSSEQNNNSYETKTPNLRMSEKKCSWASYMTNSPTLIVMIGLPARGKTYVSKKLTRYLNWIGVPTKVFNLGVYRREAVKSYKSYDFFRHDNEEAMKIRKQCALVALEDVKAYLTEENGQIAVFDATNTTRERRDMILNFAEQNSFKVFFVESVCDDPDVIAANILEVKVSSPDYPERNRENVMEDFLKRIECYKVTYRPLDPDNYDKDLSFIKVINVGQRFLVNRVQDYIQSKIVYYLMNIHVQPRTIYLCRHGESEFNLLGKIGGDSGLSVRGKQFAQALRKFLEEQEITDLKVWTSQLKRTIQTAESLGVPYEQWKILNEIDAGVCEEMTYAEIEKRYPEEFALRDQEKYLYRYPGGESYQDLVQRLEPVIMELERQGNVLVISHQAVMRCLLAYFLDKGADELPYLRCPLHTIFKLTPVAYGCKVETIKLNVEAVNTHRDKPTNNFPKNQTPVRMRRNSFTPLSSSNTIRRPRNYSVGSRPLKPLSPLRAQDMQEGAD
UniProt P61457: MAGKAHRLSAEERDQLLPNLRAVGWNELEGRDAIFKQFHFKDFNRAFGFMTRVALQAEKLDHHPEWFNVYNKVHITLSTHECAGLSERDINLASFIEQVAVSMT
UniProt Q53EL6: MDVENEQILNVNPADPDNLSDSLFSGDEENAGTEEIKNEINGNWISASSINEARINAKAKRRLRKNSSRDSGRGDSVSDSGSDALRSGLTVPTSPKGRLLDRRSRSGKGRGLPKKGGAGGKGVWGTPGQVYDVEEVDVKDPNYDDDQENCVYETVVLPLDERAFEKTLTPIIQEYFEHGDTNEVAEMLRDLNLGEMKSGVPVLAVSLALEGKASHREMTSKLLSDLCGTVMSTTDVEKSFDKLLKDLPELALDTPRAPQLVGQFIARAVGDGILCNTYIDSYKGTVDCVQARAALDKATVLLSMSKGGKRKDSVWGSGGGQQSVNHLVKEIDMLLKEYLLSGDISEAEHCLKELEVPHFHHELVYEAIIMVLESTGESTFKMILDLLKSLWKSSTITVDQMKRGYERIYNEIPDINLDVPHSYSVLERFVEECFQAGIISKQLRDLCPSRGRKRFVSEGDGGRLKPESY
UniProt Q86SE9: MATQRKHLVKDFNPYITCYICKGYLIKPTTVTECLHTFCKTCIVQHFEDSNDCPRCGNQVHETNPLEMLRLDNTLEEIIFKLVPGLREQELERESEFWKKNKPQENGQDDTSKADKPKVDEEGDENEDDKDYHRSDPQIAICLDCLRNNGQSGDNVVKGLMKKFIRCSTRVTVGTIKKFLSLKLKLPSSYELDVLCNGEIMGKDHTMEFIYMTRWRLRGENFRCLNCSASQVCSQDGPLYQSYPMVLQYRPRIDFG
UniProt P0DJ07: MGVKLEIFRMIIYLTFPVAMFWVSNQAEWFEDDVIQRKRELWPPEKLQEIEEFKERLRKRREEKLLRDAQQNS
UniProt H7BZJ3: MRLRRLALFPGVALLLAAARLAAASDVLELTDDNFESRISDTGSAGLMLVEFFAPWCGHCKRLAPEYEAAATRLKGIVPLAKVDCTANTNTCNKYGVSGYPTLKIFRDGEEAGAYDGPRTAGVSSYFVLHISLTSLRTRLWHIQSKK
UniProt Q15118, whole entry, looked up: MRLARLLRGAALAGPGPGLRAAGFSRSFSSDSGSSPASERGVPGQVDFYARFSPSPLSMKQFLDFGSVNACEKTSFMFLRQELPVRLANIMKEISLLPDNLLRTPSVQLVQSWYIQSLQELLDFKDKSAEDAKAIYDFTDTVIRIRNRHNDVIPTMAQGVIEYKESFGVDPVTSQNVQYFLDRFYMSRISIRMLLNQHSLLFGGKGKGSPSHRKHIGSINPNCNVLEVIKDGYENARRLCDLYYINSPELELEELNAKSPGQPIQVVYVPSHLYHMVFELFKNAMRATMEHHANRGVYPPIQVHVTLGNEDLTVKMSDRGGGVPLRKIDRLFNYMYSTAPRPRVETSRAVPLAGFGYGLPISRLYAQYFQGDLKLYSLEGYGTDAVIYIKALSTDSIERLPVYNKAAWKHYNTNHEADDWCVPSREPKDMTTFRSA
UniProt Q01813: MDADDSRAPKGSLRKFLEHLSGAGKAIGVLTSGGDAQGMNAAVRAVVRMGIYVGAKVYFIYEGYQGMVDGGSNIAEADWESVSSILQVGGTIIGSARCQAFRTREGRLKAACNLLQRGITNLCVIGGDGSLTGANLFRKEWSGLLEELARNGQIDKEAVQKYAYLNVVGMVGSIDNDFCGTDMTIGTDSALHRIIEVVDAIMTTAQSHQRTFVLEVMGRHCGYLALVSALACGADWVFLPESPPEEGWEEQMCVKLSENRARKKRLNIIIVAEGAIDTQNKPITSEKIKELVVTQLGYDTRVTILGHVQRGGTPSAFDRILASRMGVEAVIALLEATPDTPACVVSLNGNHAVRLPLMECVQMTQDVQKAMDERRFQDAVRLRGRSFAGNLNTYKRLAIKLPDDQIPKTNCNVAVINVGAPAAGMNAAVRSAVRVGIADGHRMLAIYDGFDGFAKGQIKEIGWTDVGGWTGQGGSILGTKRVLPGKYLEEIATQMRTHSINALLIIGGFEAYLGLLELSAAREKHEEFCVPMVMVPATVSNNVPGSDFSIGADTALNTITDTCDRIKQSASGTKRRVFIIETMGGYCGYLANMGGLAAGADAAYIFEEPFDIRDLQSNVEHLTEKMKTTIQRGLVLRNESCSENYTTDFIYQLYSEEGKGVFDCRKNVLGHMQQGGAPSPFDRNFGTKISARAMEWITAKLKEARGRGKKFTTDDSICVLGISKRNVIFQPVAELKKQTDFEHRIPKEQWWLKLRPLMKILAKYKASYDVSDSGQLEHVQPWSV
UniProt P12004, whole entry, looked up: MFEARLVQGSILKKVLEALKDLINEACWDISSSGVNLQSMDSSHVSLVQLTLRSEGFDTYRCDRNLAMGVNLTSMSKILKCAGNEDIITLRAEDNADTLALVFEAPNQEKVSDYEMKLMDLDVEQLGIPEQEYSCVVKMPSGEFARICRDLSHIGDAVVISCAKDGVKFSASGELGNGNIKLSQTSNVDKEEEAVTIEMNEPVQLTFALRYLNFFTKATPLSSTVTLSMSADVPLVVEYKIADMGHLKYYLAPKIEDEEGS
UniProt P13667: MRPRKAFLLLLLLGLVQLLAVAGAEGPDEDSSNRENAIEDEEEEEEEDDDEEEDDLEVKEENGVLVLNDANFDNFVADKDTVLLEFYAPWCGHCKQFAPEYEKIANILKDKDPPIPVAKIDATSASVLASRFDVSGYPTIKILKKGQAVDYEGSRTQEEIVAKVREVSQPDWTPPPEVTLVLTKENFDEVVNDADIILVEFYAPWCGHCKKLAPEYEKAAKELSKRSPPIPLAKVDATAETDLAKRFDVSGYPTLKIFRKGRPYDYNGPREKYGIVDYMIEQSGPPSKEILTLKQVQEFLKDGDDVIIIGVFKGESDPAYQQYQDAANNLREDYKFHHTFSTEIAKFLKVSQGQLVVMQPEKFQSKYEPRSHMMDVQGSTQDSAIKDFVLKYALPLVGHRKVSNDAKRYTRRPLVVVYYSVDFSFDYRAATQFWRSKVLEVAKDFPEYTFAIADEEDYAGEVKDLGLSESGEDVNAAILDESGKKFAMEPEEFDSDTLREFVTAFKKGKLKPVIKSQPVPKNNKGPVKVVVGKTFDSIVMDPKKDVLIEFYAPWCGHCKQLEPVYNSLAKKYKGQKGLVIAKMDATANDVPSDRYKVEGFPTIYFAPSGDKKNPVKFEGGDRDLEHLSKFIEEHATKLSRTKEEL
UniProt Q16877: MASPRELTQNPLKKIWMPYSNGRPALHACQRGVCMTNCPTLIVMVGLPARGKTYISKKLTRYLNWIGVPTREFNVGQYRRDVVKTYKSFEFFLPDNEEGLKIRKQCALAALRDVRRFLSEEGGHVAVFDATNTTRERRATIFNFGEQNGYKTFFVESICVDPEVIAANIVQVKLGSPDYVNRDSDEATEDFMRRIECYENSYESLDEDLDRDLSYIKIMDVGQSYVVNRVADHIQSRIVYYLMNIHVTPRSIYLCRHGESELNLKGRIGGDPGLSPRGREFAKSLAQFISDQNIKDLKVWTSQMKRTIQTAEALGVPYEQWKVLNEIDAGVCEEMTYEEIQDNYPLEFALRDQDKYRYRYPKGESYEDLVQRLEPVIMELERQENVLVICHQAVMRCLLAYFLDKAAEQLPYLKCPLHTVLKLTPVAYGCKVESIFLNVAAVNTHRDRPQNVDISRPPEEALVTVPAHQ
UniProt P50479: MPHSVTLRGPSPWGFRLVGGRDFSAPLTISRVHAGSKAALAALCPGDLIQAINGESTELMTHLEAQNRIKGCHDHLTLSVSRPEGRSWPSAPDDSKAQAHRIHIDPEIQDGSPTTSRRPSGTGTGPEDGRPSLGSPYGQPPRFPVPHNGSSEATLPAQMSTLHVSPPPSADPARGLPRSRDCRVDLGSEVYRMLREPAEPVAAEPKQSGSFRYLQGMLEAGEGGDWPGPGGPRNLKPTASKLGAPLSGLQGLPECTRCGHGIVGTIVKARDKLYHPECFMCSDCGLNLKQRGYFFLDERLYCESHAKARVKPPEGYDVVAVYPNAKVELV
UniProt Q7L3T8: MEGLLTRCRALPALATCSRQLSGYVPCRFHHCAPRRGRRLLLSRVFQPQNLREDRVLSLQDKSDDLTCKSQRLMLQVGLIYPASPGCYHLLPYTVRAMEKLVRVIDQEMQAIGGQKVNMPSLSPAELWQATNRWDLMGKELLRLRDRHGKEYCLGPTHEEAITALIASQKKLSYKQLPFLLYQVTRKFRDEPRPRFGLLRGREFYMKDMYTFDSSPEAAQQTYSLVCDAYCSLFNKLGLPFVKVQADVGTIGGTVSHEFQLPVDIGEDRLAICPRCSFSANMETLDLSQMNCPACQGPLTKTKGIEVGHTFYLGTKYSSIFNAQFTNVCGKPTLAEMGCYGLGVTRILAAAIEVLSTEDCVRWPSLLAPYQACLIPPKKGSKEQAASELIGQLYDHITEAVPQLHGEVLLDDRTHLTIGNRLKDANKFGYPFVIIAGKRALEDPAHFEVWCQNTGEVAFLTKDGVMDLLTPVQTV
UniProt Q29RF7: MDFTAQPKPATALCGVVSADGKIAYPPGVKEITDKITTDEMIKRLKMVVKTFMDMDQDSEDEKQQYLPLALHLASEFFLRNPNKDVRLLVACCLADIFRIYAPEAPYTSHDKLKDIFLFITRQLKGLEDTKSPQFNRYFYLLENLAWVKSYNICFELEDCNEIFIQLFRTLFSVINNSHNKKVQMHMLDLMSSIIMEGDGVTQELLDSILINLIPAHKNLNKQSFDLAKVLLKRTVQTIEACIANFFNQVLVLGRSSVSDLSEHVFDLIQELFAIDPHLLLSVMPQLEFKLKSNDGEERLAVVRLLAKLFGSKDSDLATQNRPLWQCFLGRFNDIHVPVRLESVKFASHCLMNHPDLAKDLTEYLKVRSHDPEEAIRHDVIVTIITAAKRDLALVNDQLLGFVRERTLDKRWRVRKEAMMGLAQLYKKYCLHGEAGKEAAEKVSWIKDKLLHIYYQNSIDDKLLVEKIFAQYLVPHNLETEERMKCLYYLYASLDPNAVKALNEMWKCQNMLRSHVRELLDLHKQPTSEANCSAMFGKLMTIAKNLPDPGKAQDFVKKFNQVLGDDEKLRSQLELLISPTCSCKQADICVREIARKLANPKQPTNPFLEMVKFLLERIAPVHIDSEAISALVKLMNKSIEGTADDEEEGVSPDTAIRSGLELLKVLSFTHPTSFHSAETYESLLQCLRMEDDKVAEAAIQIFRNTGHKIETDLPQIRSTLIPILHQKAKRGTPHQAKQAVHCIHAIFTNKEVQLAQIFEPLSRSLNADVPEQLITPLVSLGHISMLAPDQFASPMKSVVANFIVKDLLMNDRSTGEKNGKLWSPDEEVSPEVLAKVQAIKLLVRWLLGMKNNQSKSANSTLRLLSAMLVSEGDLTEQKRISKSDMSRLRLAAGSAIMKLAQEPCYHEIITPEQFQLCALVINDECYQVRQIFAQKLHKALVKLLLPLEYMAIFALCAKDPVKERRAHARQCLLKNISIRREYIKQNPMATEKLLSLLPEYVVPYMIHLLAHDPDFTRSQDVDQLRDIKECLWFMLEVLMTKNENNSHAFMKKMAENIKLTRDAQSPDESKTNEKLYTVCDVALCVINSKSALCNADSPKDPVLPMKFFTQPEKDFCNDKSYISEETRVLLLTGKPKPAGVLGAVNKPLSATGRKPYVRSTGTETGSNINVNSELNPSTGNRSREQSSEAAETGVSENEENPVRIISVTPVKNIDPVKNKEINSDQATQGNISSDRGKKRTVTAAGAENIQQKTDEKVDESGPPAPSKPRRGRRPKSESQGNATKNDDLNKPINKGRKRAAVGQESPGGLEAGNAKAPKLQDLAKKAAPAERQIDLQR
UniProt Q9UBV8: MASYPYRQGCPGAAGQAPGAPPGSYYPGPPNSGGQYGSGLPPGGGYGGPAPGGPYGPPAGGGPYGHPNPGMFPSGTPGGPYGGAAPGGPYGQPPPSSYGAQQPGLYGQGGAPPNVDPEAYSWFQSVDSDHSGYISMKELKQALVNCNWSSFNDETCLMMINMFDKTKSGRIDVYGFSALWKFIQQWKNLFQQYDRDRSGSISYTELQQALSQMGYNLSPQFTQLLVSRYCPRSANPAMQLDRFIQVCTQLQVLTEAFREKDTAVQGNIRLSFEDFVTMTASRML

compound: C#Cc1cccc(Nc2ncnc3cc(OCCOC)c(OCCOC)cc23)c1 [erlotinib]; assay: log2 fold change, soluble protein after heating vs DMSO (PISA); higher = thermal stabilisation; K562 lysate, 10 uM; active = over 0.2 and 3.5 SD of the protein, either way, in both replicates (recomputed)
Method in brief: (§1)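 Following dounce homogenisation of K562 pellets in PBS pH 7.4 with 1 mM MgCl2, crude extract at 1 mg/mL protein was incubated for 30 min with 10 μM compound. Aliquots were then heated for 3 min over 48°C-58°C and pooled, NP-40 was added to 0.5% at 4°C, and soluble protein was recovered as the supernatant at 21,000xg for 90 min. Channel-sum-equalised TMTpro 16plex LC-MS/MS quantified this protein. Each value, from duplicates, is a log-two fold change in thermal stability relative to solvent controls.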

log2 fold change, inactive:
PFKL isoform 2 (UniProt P17858) 0.106
PFN1 (UniProt P07737) -0.022
PCK2 (UniProt Q16822) 0.004
PFKFB2 (UniProt O60825) -0.007
PCBP2 isoform 3 (UniProt Q15366) -0.017
PDXP (UniProt Q96GD0) -0.014
PCBD1 (UniProt P61457) -0.028
PDCD4 (UniProt Q53EL6) 0
PARP2 (UniProt Q9UGN5) 0.06
PCGF5 (UniProt Q86SE9) 0.038
PATL1 (UniProt Q86TB9) 0.02
PBDC1 (UniProt Q9BVG4) 0.014
PET100 (UniProt P0DJ07) 0.027
PDIA3 (UniProt H7BZJ3) -0.013
PDK1 (UniProt Q15118) -0.06
PECAM1 (UniProt P16284) 0.049
PCBP2 (UniProt H3BRU6) 0.094
PFKP (UniProt Q01813) -0.01
PCNA (UniProt P12004) -0.041
PARP9 (UniProt Q8IXQ6) -0.059
PDIA4 (UniProt P13667) -0.011
PFKFB4 (UniProt Q16877) 0.02
PDLIM4 (UniProt P50479) 0.01
PCBP1 (UniProt Q15365) 0.014
PDHB (UniProt P11177) 0.032
PARS2 (UniProt Q7L3T8) 0.005
PDS5A (UniProt Q29RF7) 0.043
PEX16 isoform 2 (UniProt Q9Y5Y5) 0.032
PARN (UniProt O95453) -0.02
PDCD2 (UniProt Q16342) 0.056
PDIA6 isoform 2 (UniProt Q15084) -0.025
PARP1 (UniProt P09874) 0.014
PEF1 (UniProt Q9UBV8) -0.01

compound: C/C(=N\NC(=O)C1=CC(=CC=C1)S(=O)(=O)N2CCOCC2)/C3=C(C=CC(=C3)Cl)O; assay: as above
Method in brief: as §1

log2 fold change, inactive:
PFKL isoform 2 (UniProt P17858) 0.039
PFN1 (UniProt P07737) -0.017
PCK2 (UniProt Q16822) -0.06
PFKFB2 (UniProt O60825) -0.012
PCBP2 isoform 3 (UniProt Q15366) 0.005
PDXP (UniProt Q96GD0) 0.008
PCBD1 (UniProt P61457) -0.064
PDCD4 (UniProt Q53EL6) -0.052
PARP2 (UniProt Q9UGN5) -0.177
PCGF5 (UniProt Q86SE9) 0.172
PATL1 (UniProt Q86TB9) 0.038
PBDC1 (UniProt Q9BVG4) -0.026
PET100 (UniProt P0DJ07) 0.01
PDIA3 (UniProt H7BZJ3) -0.025
PDK1 (UniProt Q15118) 0.053
PECAM1 (UniProt P16284) 0.066
PCBP2 (UniProt H3BRU6) -0.272
PFKP (UniProt Q01813) -0.006
PCNA (UniProt P12004) 0.009
PARP9 (UniProt Q8IXQ6) -0.048
PDIA4 (UniProt P13667) 0.062
PFKFB4 (UniProt Q16877) 0.044
PDLIM4 (UniProt P50479) -0.054
PCBP1 (UniProt Q15365) 0.008
PDHB (UniProt P11177) 0.063
PARS2 (UniProt Q7L3T8) -0.126
PDS5A (UniProt Q29RF7) -0.015
PEX16 isoform 2 (UniProt Q9Y5Y5) 0.233
PARN (UniProt O95453) 0.055
PDCD2 (UniProt Q16342) -0.009
PDIA6 isoform 2 (UniProt Q15084) -0.01
PARP1 (UniProt P09874) 0.034
PEF1 (UniProt Q9UBV8) 0.012

compound: C1=CC(=CC=C1C2=NC3=C(N2)C=C(C=C3)C(=O)N)OC4=CC=C(C=C4)Cl; assay: as above
Method in brief: as §1

log2 fold change, inactive:
PFKL isoform 2 (UniProt P17858) 0.066
PFN1 (UniProt P07737) 0.01
PCK2 (UniProt Q16822) 0.036
PFKFB2 (UniProt O60825) 0.03
PCBP2 isoform 3 (UniProt Q15366) -0.027
PDXP (UniProt Q96GD0) 0.002
PCBD1 (UniProt P61457) -0.015
PDCD4 (UniProt Q53EL6) -0.02
PARP2 (UniProt Q9UGN5) -0.063
PCGF5 (UniProt Q86SE9) -0.022
PATL1 (UniProt Q86TB9) 0.056
PBDC1 (UniProt Q9BVG4) 0.011
PET100 (UniProt P0DJ07) 0.056
PDIA3 (UniProt H7BZJ3) -0.092
PDK1 (UniProt Q15118) -0.111
PECAM1 (UniProt P16284) 0.016
PCBP2 (UniProt H3BRU6) 0.166
PFKP (UniProt Q01813) 0.019
PCNA (UniProt P12004) -0.016
PARP9 (UniProt Q8IXQ6) -0.022
PDIA4 (UniProt P13667) 0.005
PFKFB4 (UniProt Q16877) 0.041
PDLIM4 (UniProt P50479) 0.007
PCBP1 (UniProt Q15365) 0.011
PDHB (UniProt P11177) 0.027
PARS2 (UniProt Q7L3T8) 0.011
PDS5A (UniProt Q29RF7) -0.029
PEX16 isoform 2 (UniProt Q9Y5Y5) -0.173
PARN (UniProt O95453) 0.008
PDCD2 (UniProt Q16342) -0.011
PDIA6 isoform 2 (UniProt Q15084) 0.026
PARP1 (UniProt P09874) 0.017
PEF1 (UniProt Q9UBV8) -0.014
